Assay results from article PMC11615746.
Results are given in words; binding and its absence hold for the method and conditions named. Binding seen in cells or lysates may run through a third protein. For some of these results: Binding calls can cover weak binding; strength is not graded here. For some of these results: Where a sequence is shown, tags or fusion partners need not be part of it. Values belong to the molecule of their own block, whether it stands above or below them.

By UniProt entry, the sequences of proteins in these tests, tags left out. Where a name states a change or a piece, a line headed by the entry shows the natural chain unless it says otherwise.
UniProt Q14703: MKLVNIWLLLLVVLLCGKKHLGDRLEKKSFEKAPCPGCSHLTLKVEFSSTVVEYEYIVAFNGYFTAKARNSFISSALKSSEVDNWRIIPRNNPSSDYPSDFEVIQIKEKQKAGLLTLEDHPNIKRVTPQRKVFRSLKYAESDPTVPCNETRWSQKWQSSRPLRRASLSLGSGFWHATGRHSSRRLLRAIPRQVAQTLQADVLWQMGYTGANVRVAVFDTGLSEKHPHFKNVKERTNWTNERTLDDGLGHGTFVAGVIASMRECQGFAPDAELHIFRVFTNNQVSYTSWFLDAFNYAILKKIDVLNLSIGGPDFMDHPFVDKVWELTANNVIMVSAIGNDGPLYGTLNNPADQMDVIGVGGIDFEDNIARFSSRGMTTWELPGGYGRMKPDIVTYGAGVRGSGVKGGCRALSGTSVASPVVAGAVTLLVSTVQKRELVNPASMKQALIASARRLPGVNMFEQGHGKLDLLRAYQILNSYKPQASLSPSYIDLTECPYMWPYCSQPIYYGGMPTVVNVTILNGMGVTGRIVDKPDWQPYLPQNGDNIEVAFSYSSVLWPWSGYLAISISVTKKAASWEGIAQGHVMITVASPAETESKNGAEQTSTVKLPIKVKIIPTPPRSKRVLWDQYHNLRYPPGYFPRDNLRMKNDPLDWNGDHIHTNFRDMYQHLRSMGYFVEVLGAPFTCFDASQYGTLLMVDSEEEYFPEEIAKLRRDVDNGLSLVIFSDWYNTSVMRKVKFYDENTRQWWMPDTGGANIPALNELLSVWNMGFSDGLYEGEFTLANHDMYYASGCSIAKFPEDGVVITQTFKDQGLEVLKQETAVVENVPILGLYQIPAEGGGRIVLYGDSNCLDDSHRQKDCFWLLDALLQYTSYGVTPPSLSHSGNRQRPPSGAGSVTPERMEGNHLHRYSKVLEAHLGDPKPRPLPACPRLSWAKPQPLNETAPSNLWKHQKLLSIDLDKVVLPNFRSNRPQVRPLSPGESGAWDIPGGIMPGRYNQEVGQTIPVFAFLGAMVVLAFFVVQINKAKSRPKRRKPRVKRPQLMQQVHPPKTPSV

Columns and labels:
[1] = molecular target: activating transcription factor 6 (ATF6), endogenous (human (endogenous in T24, 5637 and 253J)) (UniProt P18850); assay: co-IP; endogenous proteins; anti-ATF6 IP from 253J cells (TPD52 overexpression or empty vector) and T24 cells (shTPD52 or scramble), with 1 µg/mL tunicamycin where indicated; immunoblot
[2] = molecular target: T1, Flag-ATF6 luminal domain (amino acids 400-670) (UniProt P18850); assay: co-IP; 293T cells transfected with HA-TPD52 and Flag-ATF6 or its truncation constructs; IP buffer (50 mM Tris HCl, 150 mM NaCl, 1 mM EDTA, 1% Triton X-100), antibody-conjugated agarose beads, 4 °C, 4 h; immunoblot
T1 sequence: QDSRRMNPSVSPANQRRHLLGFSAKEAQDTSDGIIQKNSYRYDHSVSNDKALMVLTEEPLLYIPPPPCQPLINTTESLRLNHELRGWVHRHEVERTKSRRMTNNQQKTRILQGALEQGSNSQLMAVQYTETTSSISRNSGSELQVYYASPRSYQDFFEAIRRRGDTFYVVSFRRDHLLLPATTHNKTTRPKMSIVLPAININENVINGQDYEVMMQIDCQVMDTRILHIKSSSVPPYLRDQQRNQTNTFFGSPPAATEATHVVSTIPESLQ

[3] = molecular target: T2, Flag-ATF6 transmembrane domain (amino acids 378-399) (UniProt P18850); assay: as above
T2 sequence: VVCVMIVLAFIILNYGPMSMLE

[4] = molecular target: tumor protein D52 (TPD52), endogenous (human (endogenous in T24 and 5637)); assay: co-IP; endogenous proteins; anti-TPD52 IP (T24), anti-ATF6 IP (T24 and 5637), anti-Cdc20 IP (T24, 20 µM MG132 for 6 h before harvesting); immunoblot

binding [1]: binds
Molecule: site-1 protease (S1P), endogenous (from UniProt Q14703) (enzyme)

Molecule: HA-TPD52 (human)
binding [2]: binds
binding [3]: no binding

binding [4]: binds
B1: site-2 protease (S2P), endogenous (enzyme, UniProt O43462 1-519)
chain: MIPVSLVVVVVGGWTVVYLTDLVLKSSVYFKHSYEDWLENNGLSISPFHIRWQTAVFNRAFYSWGRRKARMLYQWFNFGMVFGVIAMFSSFFLLGKTLMQTLAQMMADSPSSYSSSSSSSSSSSSSSSSSSSSSSSLHNEQVLQVVVPGINLPVNQLTYFFTAVLISGVVHEIGHGIAAIREQVRFNGFGIFLFIIYPGAFVDLFTTHLQLISPVQQLRIFCAGIWHNFVLALLGILALVLLPVILLPFYYTGVGVLITEVAEDSPAIGPRGLFVGDLVTHLQDCPVTNVQDWNECLDTIAYEPQIGYCISASTLQQLSFPVRAYKRLDGSTECCNNHSLTDVCFSYRNNFNKRLHTCLPARKAVEATQVCRTNKDCKKSSSSSFCIIPSLETHTRLIKVKHPPQIDMLYVGHPLHLHYTVSITSFIPRFNFLSIDLPVVVETFVKYLISLSGALAIVNAVPCFALDGQWILNSFLDATLTSVIGDNDVKDLIGFFILLGGSVLLAANVTLGLWMVTAR
